Laboratory results: US20240254107A1, “RNA-TARGETING LIGANDS, COMPOSITIONS THEREOF, AND METHODS OF MAKING AND USING THE SAME” (THE UNIVERSITY OF NORTH CAROLINA AT CHAPEL HILL, priority 2021, published 2024)

Assay: Comparison of fragment-linker-fragment ligands: ligand efficiency (LE) and linking coefficient (E)
Settings: FIG. 5 legend

SMILES: c1ccc(N2CCNCC2)c(NCc2ccc3nccnc3c2)c1 [Compound 37]
- E value (linking coefficient): 2.5
